# Earlier results in patent US20250017933A1, “CANCER TREATMENT USING LSD1 INHIBITORS AND PLK1 INHIBITORS” (Cardiff Oncology, Inc., priority 2021, published 2025).
# At least one structure is not confirmed: it was looked up by name or label, or the drawing left a doubt.
# Test system: patients with relapsed/refractory acute myeloid leukemia (R/R AML)
# Details: single agent; cited from earlier work
structure (smiles),measurement,value
"N[C@H]1CC[C@H](N[C@@H]2C[C@H]2c2ccccc2)CC1 [ORY-1001, (trans)-N1-((1R,2S)-2-phenylcyclopropyl)cyclohexane-1,4-diamine]",clinical and biologic activity,signs of clinical and biologic activity
